{"sequences": {"note": "The chains behind the UniProt entries cited, without tags or fusion partners. Residues count along the entry.", "UniProt Q96E22, residues 73-293": "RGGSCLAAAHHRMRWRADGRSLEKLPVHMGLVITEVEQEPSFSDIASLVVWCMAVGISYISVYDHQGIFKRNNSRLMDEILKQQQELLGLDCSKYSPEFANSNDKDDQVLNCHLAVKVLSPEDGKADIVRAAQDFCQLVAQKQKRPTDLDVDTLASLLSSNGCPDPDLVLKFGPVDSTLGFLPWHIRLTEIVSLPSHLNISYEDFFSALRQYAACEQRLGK"}, "source": "paper PMC7573591", "about": "(Nature Communications, 2020)", "biological_target": "soluble Nogo-B receptor, cytosolic domain (sNgBR, residues 73-293) (human) (UniProt Q96E22)", "assay": "cross-linking; about 8 µM purified shcis-PT with 0.005% glutaraldehyde, room temperature, 15 min; products analysed by SDS-PAGE; both purified", "note": "Results are given in words; binding and its absence hold for the method and conditions named.", "data": [{"substance": "soluble Nogo-B receptor, cytosolic domain (sNgBR, residues 73-293) (from UniProt Q96E22 73-293) (domain or fragment)", "values": [{"measurement": "binding", "result": "no binding (tested: about 8 µM shcis-PT)"}]}]}
